The target in experiment [1] is T1, platelet endothelial aggregation receptor 1 (PEAR1), human (human (endogenous in cultured human pulmonary fibroblasts)) (UniProt Q5VY43).
T1 sequence: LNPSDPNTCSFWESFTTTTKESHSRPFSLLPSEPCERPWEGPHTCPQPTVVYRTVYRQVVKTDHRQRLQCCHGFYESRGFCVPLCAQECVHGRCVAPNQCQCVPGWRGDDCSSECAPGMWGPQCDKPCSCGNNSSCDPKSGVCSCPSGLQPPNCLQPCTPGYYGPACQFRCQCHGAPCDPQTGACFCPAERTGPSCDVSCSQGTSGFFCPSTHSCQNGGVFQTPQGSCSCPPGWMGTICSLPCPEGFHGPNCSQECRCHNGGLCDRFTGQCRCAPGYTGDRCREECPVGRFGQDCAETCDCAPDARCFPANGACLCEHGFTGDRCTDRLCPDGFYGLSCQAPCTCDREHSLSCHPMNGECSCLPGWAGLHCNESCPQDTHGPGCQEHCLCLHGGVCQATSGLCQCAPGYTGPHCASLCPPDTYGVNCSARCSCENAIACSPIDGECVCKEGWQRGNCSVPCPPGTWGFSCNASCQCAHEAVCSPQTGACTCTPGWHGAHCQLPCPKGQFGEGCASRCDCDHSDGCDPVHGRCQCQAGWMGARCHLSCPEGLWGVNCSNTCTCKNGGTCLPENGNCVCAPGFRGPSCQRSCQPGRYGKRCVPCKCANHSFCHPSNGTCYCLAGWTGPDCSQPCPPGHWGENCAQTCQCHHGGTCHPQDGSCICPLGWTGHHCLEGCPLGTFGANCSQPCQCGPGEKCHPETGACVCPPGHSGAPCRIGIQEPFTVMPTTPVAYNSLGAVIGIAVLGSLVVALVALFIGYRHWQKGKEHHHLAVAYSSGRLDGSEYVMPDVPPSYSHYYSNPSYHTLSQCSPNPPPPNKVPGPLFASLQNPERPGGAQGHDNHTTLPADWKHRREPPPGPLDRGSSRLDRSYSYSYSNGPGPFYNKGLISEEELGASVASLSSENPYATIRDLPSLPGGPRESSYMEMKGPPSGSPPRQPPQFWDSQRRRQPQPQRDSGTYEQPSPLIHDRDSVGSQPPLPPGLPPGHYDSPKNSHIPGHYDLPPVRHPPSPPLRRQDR
Kind of experiment: co-IP; lysates of cultured human or mouse pulmonary fibroblasts incubated overnight at 4 °C with anti-human PEAR1 mAbs LF2 and LF3, anti-mouse PEAR1 mAb LF1 or anti-PP1 antibody; mouse IgG as negative control; protein A/G agarose beads 3 h, washed 3 times with PBS; Western blot. Background: In western blotting, separated proteins are transferred to a membrane and probed.

Chains of the proteins cited; added tags and fusions are not shown.
UniProt P62136: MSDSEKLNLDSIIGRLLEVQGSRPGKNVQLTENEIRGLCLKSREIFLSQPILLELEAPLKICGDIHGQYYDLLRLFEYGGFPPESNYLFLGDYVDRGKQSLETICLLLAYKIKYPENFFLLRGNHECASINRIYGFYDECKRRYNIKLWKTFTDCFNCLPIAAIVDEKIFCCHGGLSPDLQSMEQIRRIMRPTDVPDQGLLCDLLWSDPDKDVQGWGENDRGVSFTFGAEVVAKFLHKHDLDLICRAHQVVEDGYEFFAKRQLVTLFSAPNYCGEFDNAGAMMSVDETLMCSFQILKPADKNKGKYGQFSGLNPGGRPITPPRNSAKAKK
UniProt P62137: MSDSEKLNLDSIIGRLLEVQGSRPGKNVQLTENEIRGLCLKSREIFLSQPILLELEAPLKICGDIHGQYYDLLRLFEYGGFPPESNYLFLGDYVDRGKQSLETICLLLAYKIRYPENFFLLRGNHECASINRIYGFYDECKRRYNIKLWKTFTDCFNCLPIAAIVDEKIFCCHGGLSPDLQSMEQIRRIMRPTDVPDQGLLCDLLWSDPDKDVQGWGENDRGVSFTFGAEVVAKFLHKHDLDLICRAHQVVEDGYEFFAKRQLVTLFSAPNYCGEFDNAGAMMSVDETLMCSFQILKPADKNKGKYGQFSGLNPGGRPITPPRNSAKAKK

Experiment [2] addresses T2, platelet endothelial aggregation receptor 1 (PEAR1), mouse (mouse (endogenous in cultured mouse pulmonary fibroblasts)) (UniProt Q8VIK5).
T2 sequence: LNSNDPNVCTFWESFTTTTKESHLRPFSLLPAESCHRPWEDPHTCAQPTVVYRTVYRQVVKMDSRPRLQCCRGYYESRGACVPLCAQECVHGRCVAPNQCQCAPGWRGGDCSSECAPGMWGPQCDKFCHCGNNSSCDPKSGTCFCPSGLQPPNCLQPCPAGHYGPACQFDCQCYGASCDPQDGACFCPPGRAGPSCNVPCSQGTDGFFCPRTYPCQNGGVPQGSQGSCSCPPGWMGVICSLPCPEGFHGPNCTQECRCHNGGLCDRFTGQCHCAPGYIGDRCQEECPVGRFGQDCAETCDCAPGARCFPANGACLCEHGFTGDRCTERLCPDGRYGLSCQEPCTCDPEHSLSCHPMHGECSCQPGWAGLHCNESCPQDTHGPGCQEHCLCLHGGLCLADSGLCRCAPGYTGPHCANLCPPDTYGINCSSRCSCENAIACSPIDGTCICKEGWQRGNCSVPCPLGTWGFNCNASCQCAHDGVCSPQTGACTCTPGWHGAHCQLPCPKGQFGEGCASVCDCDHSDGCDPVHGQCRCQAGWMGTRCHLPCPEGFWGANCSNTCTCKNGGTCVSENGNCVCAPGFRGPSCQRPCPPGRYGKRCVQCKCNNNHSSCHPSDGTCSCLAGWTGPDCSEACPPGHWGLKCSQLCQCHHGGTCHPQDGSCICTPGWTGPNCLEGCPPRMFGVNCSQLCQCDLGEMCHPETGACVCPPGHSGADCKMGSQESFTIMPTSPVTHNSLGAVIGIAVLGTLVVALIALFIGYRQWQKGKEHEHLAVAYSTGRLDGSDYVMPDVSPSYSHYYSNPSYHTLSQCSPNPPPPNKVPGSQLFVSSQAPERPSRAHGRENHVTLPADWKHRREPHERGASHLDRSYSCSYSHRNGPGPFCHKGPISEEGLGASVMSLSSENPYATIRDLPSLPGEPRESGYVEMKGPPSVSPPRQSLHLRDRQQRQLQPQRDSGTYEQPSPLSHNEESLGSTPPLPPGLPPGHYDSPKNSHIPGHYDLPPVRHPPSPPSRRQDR
The description is as above.

These are yes or no findings as the source states them, for the method shown. In cells and extracts the contact can be indirect. Some binding calls cover weakened binding; strength is not graded here.

Regarding “protein phosphatase 1 catalytic subunit alpha (PP1α), human (from UniProt P62136 1-330) (enzyme)”, the binding entry in experiment [1] was “binds”.

Turning to “protein phosphatase 1 catalytic subunit alpha (PP1α), mouse (from UniProt P62137 1-330) (enzyme)”, in experiment [2], the binding result is given as “binds”.

Values taken from publication PMC9675736.
